Article PMC9392799
These are yes or no findings as the source states them, for the method shown. In cells and extracts the contact can be indirect. Some entries that bind do so weakly or less than the wild type.

Chains of the proteins cited; added tags and fusions are not shown. Residues count along the entry.
UniProt Q14694: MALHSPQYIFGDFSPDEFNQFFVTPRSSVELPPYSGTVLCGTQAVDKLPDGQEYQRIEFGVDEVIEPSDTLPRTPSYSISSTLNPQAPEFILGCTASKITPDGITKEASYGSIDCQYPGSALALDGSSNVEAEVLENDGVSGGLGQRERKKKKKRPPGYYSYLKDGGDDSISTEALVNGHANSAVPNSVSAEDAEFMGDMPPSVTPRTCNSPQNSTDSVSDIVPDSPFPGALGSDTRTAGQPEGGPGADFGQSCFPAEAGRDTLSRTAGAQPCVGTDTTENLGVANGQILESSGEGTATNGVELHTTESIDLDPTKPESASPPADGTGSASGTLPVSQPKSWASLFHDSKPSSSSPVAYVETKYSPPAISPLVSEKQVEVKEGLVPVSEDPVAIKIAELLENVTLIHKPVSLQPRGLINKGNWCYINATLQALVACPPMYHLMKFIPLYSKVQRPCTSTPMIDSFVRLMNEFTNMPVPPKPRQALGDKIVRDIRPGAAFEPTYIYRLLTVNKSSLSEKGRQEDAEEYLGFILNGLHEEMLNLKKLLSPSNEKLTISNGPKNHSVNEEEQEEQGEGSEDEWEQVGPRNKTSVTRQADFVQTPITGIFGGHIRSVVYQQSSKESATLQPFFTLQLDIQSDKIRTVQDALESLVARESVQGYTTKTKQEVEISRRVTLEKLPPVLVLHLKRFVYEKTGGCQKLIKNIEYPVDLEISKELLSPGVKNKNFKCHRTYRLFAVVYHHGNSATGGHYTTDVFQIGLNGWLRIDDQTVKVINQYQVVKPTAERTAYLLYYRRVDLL
Tau307-326K peptide (P10636, residues 624-643): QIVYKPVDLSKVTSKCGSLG
Tau341-378K peptide (P10636, residues 658-695): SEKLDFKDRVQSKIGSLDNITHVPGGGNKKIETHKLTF

Biological target: USP10 from the plasmid EGFP-USP10 (GV 230) (UniProt Q14694)
Assay: co-IP; in vitro competition: anti-Tau5 precipitate from N2a cells co-expressing USP10 and Tau441 incubated with 1 mM synthetic peptide (each alone or the two together) for 30 min at room temperature; USP10 left on the precipitate blotted; only the binder purified

Substance	binding
Tau307-326K peptide (from UniProt P10636-8 307-326)	binds
Tau341-378K peptide (from UniProt P10636-8 341-378)	binds
